{
  "source": "patent US6913877B1",
  "about": "(priority 2000, dated 2005)",
  "key": {"[1]": {"test_system": "Betta splendens erythrophores", "assay_type": "cell-based"}},
  "note": "Entries after “also recorded” stand apart in the source; their conditions may differ.",
  "data": [
    {"smiles": "COc1ccc([C@@H]2Sc3ccccc3N(CCN(C)C)C(=O)[C@@H]2OC(C)=O)cc1", "note": "[Diltiazem]", "values": [
      {"measurement": "erythrophore pigment response after pre-treatment with norepinephrine", "setting": "[1]", "result": "produces pigment dispersion; also recorded: failed to induce pigment dispersion response"},
      {"measurement": "melanophore response", "setting": "melanophores", "result": "does not alter melanophores"}
    ]}
  ]
}
